Assay results as given in paper PMC10087458 (Chemical Biology & Drug Design, 2022).

test system: Mycobacterium bovis BCG (ATCC35734); format: cell-based; settings: ratio between GIC50 (RAW 264.7) and MIC90 BCG

SMILES | SI GIC50/MIC90 M. bovis BCG
CS(=O)(=O)OCCOCCOCCOCCOCC#Cc1nc(N)c2ncn([C@@H]3O[C@H](CO)[C@@H](O)[C@H]3O)c2n1 [10b] | 1.0
CS(=O)(=O)OCCOCCOCCOCCOCCOCC#Cc1nc(N)c2ncn([C@@H]3O[C@H](CO)[C@@H](O)[C@H]3O)c2n1 [10c] | 1.0
CC1(C)O[C@@H]2[C@H](O1)[C@@H](CO)O[C@H]2n1cnc2c(N)nc(C#CCOCCOCCOCCOCCOS(C)(=O)=O)nc21 [11b] | 0.1
CC1(C)O[C@@H]2[C@H](O1)[C@@H](CO)O[C@H]2n1cnc2c(N)nc(C#CCOCCOCCOCCOCCOCCOS(C)(=O)=O)nc21 [11c] | 0.3
CC1(C)O[C@@H]2[C@H](O1)[C@@H](COS(N)(=O)=O)O[C@H]2n1cnc2c(N)nc(C#CCOCCOCCOCCOCCOCCOS(C)(=O)=O)nc21 [12c] | 0.1
NNC(=O)c1ccncc1 [Isoniazid, isoniazid, reference compound] | 1020.4
Nc1nc(I)nc2c1ncn2[C@@H]1O[C@H](CO)[C@@H](O)[C@H]1O [compound 9, 2‐iodoadenosine, reference compound] | 16
